PubChem BioAssay AID686943 | Drosophila RNAi Screening Center, 2013
Test: 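Search across the genome for regulators of signalling from receptor tyrosine kinase to ERK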 (primary screen). Cell system: Drosophila S2R+ haemocyte-like cells expressing YFP-tagged ERK (Rolled). Reagent: long dsRNA against Drosophila genes. Challenge: insulin stimulation versus unstimulated cells; dose and duration not given. Measurement: 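Per-plate z-scores of phospho-ERK immunostaining normalised to YFP-tagged ERK, measured with and without insulin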. Scale: replicate 1, z-score of dpERK with insulin: higher = more active ERK per ERK-YFP after insulin.
In all, the deposit lists about 23,000 reagents; this is a random part of those with a known target gene and a result. 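Extra replicates exist only for a retested subset of genes; insulin dose and duration not given; both raised and lowered dpERK matter.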 Names joined by + are all predicted targets of the reagent. Not all columns of the deposit are shown. No sequences are given here. Not stated in the record: the amount of reagent, the time to read-out.

| gene knocked down | dsRNA | replicate 1, z-score of dpERK with insulin |
| --- | --- | --- |
| ATPsyngamma (GeneID 43507) | DRSC14094 | -0.06 |
| CG2267 (GeneID 43639) | DRSC15435 | -0.29 |
| GatC + PolG2 | DRSC03312 | 0.48 |
| Ir7e (GeneID 7354417) | DRSC18011 | 1.49 |
| CG4210 (GeneID 41832) | DRSC15551 | 0.26 |
| CG31915 (GeneID 319025) | DRSC03000 | 0.59 |
| Bx42 (GeneID 31840) | DRSC17743 | -2.55 |
| Jon99Ci (GeneID 43545) | DRSC16860 | 0.57 |
| Syx5 (GeneID 34966) | DRSC03432 | 3.15 |
| SoxN (GeneID 44275) | DRSC03440 | 0.18 |
| SoxN (GeneID 44275) | DRSC21779 | 0.5 |
| CR31822 (GeneID 10178843) | DRSC01510 | 0.03 |
| Uba1 (GeneID 35998) | DRSC07567 | 0.09 |
| CG30091 (GeneID 246449) | DRSC21809 | -3.4 |
| ND-15 (GeneID 33179) | DRSC00311 | -0.29 |
| CG14100 (GeneID 40132) | DRSC10101 | 0.55 |
| CR14033 (GeneID 10178827) | DRSC02358 | 1.16 |
| CG43108 (GeneID 12798329) | DRSC05654 | 0.98 |
| Ant2 (GeneID 32008) | DRSC19330 | -1.12 |
| HBS1 (GeneID 117365) | DRSC08544 | -2.1 |
| Inx2 (GeneID 31646) | DRSC18783 | 0.2 |
| CG7213 (GeneID 38924) | DRSC10787 | 1.08 |
| CCT3 (GeneID 42029) | DRSC16602 | -1.7 |
| robo1 (GeneID 37603) | DRSC04712 | 0.62 |
| CG34433 (GeneID 5740702) | DRSC15077 | 0.04 |
| CG42686 (retired record) (GeneID 42674) | DRSC15247 | -1.46 |
| CG42686 (retired record) (GeneID 42674) | DRSC15248 | -0.35 |
| GluRIID (GeneID 44483) | DRSC16723 | 0.14 |
| Dis3 (GeneID 42900) | DRSC16034 | 0.99 |
| boss (GeneID 43146) | DRSC16916 | 1.12 |
| Nep3 (GeneID 33005) | DRSC20685 | -0.49 |
| CG42264 (GeneID 31504) | DRSC18074 | -0.69 |
| CG42264 (GeneID 31504) | DRSC18075 | -0.23 |
| CG2931 (GeneID 40673) | DRSC12324 | 0.55 |
| adp (GeneID 37073) | DRSC06916 | 0.49 |
| qkr54B (GeneID 36966) | DRSC07670 | 0.58 |
| CG7550 (GeneID 38901) | DRSC10875 | 0.01 |
| l(2)k05911 (GeneID 34731) | DRSC02523 | 0.09 |
| CG14147 (GeneID 39227) | DRSC10149 | 1.05 |
| CG12680 (GeneID 31427) | DRSC17871 | 0.73 |
| Socs44A (GeneID 35786) | DRSC06828 | -0.04 |
| ase (GeneID 30985) | DRSC18739 | -0.26 |
| Pp4-19C (GeneID 45031) | DRSC20559 | -2.75 |
| Pp4-19C (GeneID 45031) | DRSC21251 | -2.79 |
| CG34229 (GeneID 5740848) | DRSC06316 | 0.2 |
| CG16719 (GeneID 39131) | DRSC10222 | 0.04 |
| Camta (GeneID 35974) | DRSC06440 | -0.94 |
| Camta (GeneID 35974) | DRSC06441 | -4.57 |
| Camta (GeneID 35974) | DRSC07272 | 0.13 |
| Prosalpha4T2 (GeneID 37910) | DRSC04643 | 1.38 |
| CG17493 (GeneID 3355126) | DRSC03798 | -0.8 |
| CG11842 (GeneID 43431) | DRSC14400 | -0.72 |
| CycE (GeneID 34924) | DRSC03295 | -6.09 |
| CycE (GeneID 34924) | DRSC03296 | -4.17 |
| Gr22e (GeneID 117498) | DRSC20912 | 0.49 |
| CG11454 (GeneID 33175) | DRSC00310 | 0.03 |
| crol (GeneID 34592) | DRSC03514 | 0.07 |
| crol (GeneID 34592) | DRSC21348 | 0.43 |
